This note sets out measurements from patent US20260053941A1.

The target in assay [1] is transferrin receptor 1 (TfR1) (human) (UniProt P02786). Put plainly: ELISA; complex in 25 mM Tris, 10% (w/v) sucrose, pH 7.5, after four weeks at room temperature. On the technique in general: An ELISA detects its analyte on a solid surface through an enzyme-linked reagent.
Assay [2] shares this target. Put plainly: ELISA; complex in alternative formulations a and b, stored at -80 C and at room temperature for one week.

No constants are given. Whether binding was seen depends on the method and setting. Some entries that bind do so weakly or less than the wild type.

B1: anti-TfR1 Fab-siRNA complex of formula (Id) (anti-TfR1 antibody provided in Table 2 covalently linked to a DUX4-targeting siRNA) (Fab, V domains shown)
VH: QVQLQESGPGLVKPSQTLSLTCTVTGYSITSGYYWNWIRQPPGKGLEWIGYITFDGANNYNPSLKNRVSISRDTSKNQFSLKLSSVTAEDTATYYCTRSSYDYDVLDYWGQGTTVTVSS
VL: DIQMTQSPSSLSASVGDRVTITCRASQDISNFLNWYQQKPGQPVKLLIYYTSRLHSGVPSRFSGSGSGTDFTLTISSLQPEDFATYYCQQGHTLPYTFGQGTKLEIKR
On to B1, for which the binding result in assay [1] and in assay [2] was “binds” each time.
